Reference: PubChem BioAssay AID1347076 (National Center for Advancing Translational Sciences (NCATS), 2019)
In all, about 400,000 compounds went through this assay and about 13,000 (3.2%) were called active. Inconclusive means that the source gave no clear call. Such entries were picked first, then a sample of the others. Calls follow the shape of the dose curve; as a rule, active = well fitted cell-killing curve with a large enough effect; inconclusive = small, poorly fitted or top-dose-only effect, or effect the other way; inactive = flat fitted curve, though single readings scatter. A potency beside an inconclusive call is a rough fit, not a confirmed value.

Experiment: qHTS assay for MDR1-selective chemotherapeutics: Primary screen using the drug-selected MDR subline cells KB-V1; also: nearly all actives have a fitted effect of over 60% in size
Settings: KB-V1 MDR cells viability, CellTiter-Glo, 72 h; activity change, negative = cytotoxicity: at 46.1 µM (top of the series)
Outline: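 Cytotoxicity via CellTiter-Glo luminescence after 72 h compound exposure at 37 degrees C. Cells: drug-selected KB-V1 line, DMEM phenol-red free plus 10% FBS. Compounds tested at multiple concentrations; normalized data fitted to concentration-effect curves.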
% is scaled to controls: 0 for no effect and ±100 for the full control effect; potency is read from the fitted curve at half-maximal effect.

SMILES	Potency	activity change, negative = cytotoxicity
CCC(=O)N1CCc2cc(OC)c(OC)cc2C1COc1ccc(OC)cc1 (stereo unspecified)	inconclusive: 6.51 µM [cytotoxic, partial curve, poor fit]	–
CCOc1ccc(NC(=S)Nc2cc(-c3ccccc3)[nH]n2)cc1	active: 14.6 µM	–
CCOc1cc2nc(-c3ccc(OC)c(OC)c3)nc(N3CCOCC3)c2cc1OC	inconclusive: 29.1 µM [cytotoxic, single point]	–
Cc1ccc[n+](CC2OCc3ccccc3CO2)c1	–	inactive: 2.99%
N#Cc1ccc(N2CCN(C(=O)c3cccs3)CC2)c(F)c1	inconclusive: 13 µM [cytotoxic, partial curve]	–
Cc1cc(Br)ccc1NC(=O)CN(C)C(=O)C1CCN(C(=O)c2ccc(F)cc2)CC1	inconclusive: 29.1 µM [cytotoxic, single point]	–
O=c1cc(NC2CCCCC2)[nH]c(=O)[nH]1	–	inactive: 17.4%
Cc1ccc(NC(=O)c2cccc(S(=O)(=O)N(C)c3ccccc3)c2)cc1S(=O)(=O)N1CCOCC1	active: 5.17 µM	–
Cc1onc(-c2c(F)cccc2Cl)c1C(=O)c1ccccc1	–	inactive: -17.1%
Cc1ccc(S(=O)(=O)N2CCCCC2C(=O)Nc2nncs2)cc1 (stereo unspecified)	inconclusive: 16.4 µM [cytotoxic, single point]	–
Cc1ccccc1CN1C[C@H]2CON(C)[C@H]2C[C@H]1c1cccc(Br)c1	inconclusive: 0.411 µM [cytotoxic, full curve]	–
COc1ccc2[nH]c(C)c(CCNC(=S)Nc3ccc(C)cc3)c2c1	–	inactive: -5.7%
CC(C)Nc1ccc(-c2nc(-c3ccncc3)no2)cc1[N+](=O)[O-]	–	inactive: 4.1%
NS(=O)(=O)c1cccc(NC(=S)NC(=O)C23CC4CC(CC(C4)C2)C3)c1	active: 18.4 µM	–
COc1ccc(C2=C(Nc3ccc(Br)c(C)c3)c3ccccc3C2=O)cc1	inconclusive: 25.9 µM [cytotoxic, partial curve, poor fit]	–
COC(c1ccccc1)c1nnc(CCC(=O)N(C)CCOc2ccccc2)o1 (stereo unspecified)	inconclusive: 8.2 µM [cytotoxic, partial curve]	–
CCc1nn(CC(=O)N2CCN(c3cccc(OC)c3)CC2)c(=O)c2cc3occc3n12	–	inactive: -1.93%
CCC(C)[C@H](NC(=O)[C@@H]1CSC2c3ccccc3C(=O)N21)C(=O)N1CCCCC1 (stereo partly specified)	–	inactive: -16.3%
CC1=NN(Cc2ccccc2)C(=O)/C1=C\c1ccc(N(C)C)cc1	–	inactive: 14.3%
CC(NC(=O)c1ccc(OC2CCN(Cc3ccccn3)CC2)cc1)c1nccs1 (stereo unspecified)	inconclusive: 8.2 µM [cytotoxic, partial curve, poor fit]	–
CC1(C)CC(=O)C(N=Nc2cc(S(=O)(=O)N3CCOCC3)ccc2Cl)=C(O)C1	inconclusive: 20.6 µM [rising, partial curve, poor fit]	–
CCOC(=O)c1c(C)[nH]c(C)c1S(=O)(=O)N1CCCC(C(=O)N2CCN(c3ccccc3F)CC2)C1 (stereo unspecified)	–	inactive: 3.71%
CCN(CC)S(=O)(=O)c1ccc(NC(=O)c2cc3ccc4cccnc4c3[nH]2)cc1	inconclusive: 23.1 µM [rising, single point]	–
NC(=O)N/N=C/c1sc(=O)n(-c2ccccc2)c1Cl	inconclusive: 23.1 µM [cytotoxic, partial curve, poor fit]	–

Structural class: the compounds so far containing two or more sulfur atoms
SMILES	Potency	activity change, negative = cytotoxicity
Cc1ccc(NC(=O)c2cccc(S(=O)(=O)N(C)c3ccccc3)c2)cc1S(=O)(=O)N1CCOCC1	active: 5.17 µM	–
Cc1ccc(S(=O)(=O)N2CCCCC2C(=O)Nc2nncs2)cc1 (stereo unspecified)	inconclusive: 16.4 µM [cytotoxic, single point]	–
NS(=O)(=O)c1cccc(NC(=S)NC(=O)C23CC4CC(CC(C4)C2)C3)c1	active: 18.4 µM	–

The list continues.

SMILES	Potency	activity change, negative = cytotoxicity
CCOc1ccccc1N1CCN(C(=O)CSc2ccc3c(c2)OCCO3)CC1	active: 11.6 µM	–
Cc1ccc(-n2nc(C(=O)Nc3ccc(F)cc3Cl)c(=O)n(C)c2=O)cc1	–	inactive: 0%
C[C@H](CO)N1C[C@H](C)[C@H](CN(C)C(=O)c2ccccn2)Oc2cc(C#Cc3ccc(F)cc3)ccc2S1(=O)=O	–	inactive: 2.28%
Cc1cc(N2CCN(C)CC2)nc2ccc(NC(=O)c3ccc(C(C)(C)C)cc3)cc12	inconclusive: 29.1 µM [cytotoxic, single point]	–
CN(C(=O)CSc1nc2ccccc2s1)c1c(N)n(Cc2ccccc2)c(=O)[nH]c1=O	–	inactive: 5.53%
COc1ccc(NC(=O)CN2CCC(NC(=O)c3ccco3)CC2)c([N+](=O)[O-])c1	inconclusive: 20.6 µM [cytotoxic, partial curve, poor fit]	–
C[C@H](CO)N1C[C@H](C)[C@@H](CN(C)Cc2ccncc2)Oc2c(NS(=O)(=O)c3cn(C)cn3)cccc2C1=O	inconclusive: 13 µM [rising, partial curve, poor fit]	–
Cc1ccc(C(=O)n2nc(C)c(S(=O)(=O)N3CCCCCC3)c2C)cc1C	inconclusive: 29.1 µM [rising, single point]	–
C=CC(=O)N1CCC[C@@H](n2nc(-c3ccc(Oc4ccccc4)cc3)c3c(N)ncnc32)C1	active: 22.4 µM	–
O=[N+]([O-])c1ccc(S(=O)(=O)CC(CN2CCCCC2)N2CCCCC2)cc1 (stereo unspecified)	inconclusive: 18.4 µM [cytotoxic, single point]	–
COc1cc(/C=C2\C(=O)ON=C2c2ccccc2)cc(Cl)c1O	inconclusive: 29.1 µM [cytotoxic, single point]	–
Cc1ccc(S(=O)(=O)N2CC=C(c3c(C)n(C)c4ccccc34)CC2)cc1	–	inactive: -14.3%
CCCC(=O)Oc1ccc(-c2nccc(C(OC)OC)n2)cc1	inconclusive: 29.1 µM [rising, single point]	–
C=CCn1c(SCc2c(C)noc2C)nc2sc3c(c2c1=O)CCCC3	active: 23.1 µM	–
COc1ccc(Cn2c(=O)n(-c3ccc(F)c(Cl)c3)c(=O)c3c2c2cc(OC)ccc2n3C)cc1	–	inactive: 29.2%
CCc1ccccc1NC(=O)c1cnn(-c2ccccc2)c1C	–	inactive: -11.4%
COc1cccc(CNC(=O)c2cccnc2Sc2ccccc2)c1	–	inconclusive: -18.9%
Nc1nc2ccccc2n1/N=C/c1ccc(Br)cc1	active: 9.2 µM	–
CC(Oc1ccc(Cl)cc1)C(=O)NCC1CCCO1 (stereo unspecified)	–	inactive: -14.3%
CSCCC(C(=O)Nc1c(C)cccc1C)n1c(-c2cnc(C)cn2)nc2ccccc21 (stereo unspecified)	inconclusive: 5.17 µM [cytotoxic, full curve]	–
COc1ccc(CNC(=O)CSc2nc(SC)ns2)cc1	–	inactive: -0.576%
COc1ccccc1NC(=O)CSc1nc(O)c(C/C=C/c2ccccc2)c(=O)[nH]1	–	inactive: 1.36%
Cc1cccc(Nc2nnc(SCC(=O)NC(=O)Nc3ccc4c(c3)OCCO4)s2)c1	inconclusive: 29.1 µM [cytotoxic, single point]	–
COc1ccc(NS(=O)(=O)c2cc(C(=O)O)ccc2C)cc1	–	inactive: 2.54%

SMILES	Potency	activity change, negative = cytotoxicity
Cc1cc(C)nc(Sc2nc(Nc3ccccc3)nc(Sc3nc(C)cc(C)n3)n2)n1	inconclusive: 29.1 µM [cytotoxic, single point]	–
COC(=O)c1cc(O)c(OCc2ccccc2)c(O)c1	inconclusive: 29.1 µM [cytotoxic, single point]	–
CCOP(=O)(OCC)C(NC(=O)Nc1cccc(Cl)c1)C(N)=O (stereo unspecified)	inconclusive: 4.11 µM [rising, full curve]	–
O=C(NCc1ccc2c(c1)OCO2)C(C(=O)c1ccccc1)n1cc(Cl)ccc1=O (stereo unspecified)	inconclusive: 0.103 µM [rising, full curve]	–
COC(=O)c1ccc(NC(=O)CN2CCN(CCO)CC2)cc1	–	inactive: 0%
CCOC(=O)c1c(S(=O)(=O)N2CCC(C(=O)NCc3cccc(C)c3)CC2)c(C)n(C)c1C	–	inactive: 0%
COc1cc2[nH]c(=O)n(CCCCCC(=O)N3CC=C(c4ccccc4)CC3)c(=O)c2cc1OC	inconclusive: 32.6 µM [cytotoxic, single point]	–
C/C(=N\NC(N)=O)c1cccc(Cl)c1	inconclusive: 3.26 µM [cytotoxic, full curve]	–
CCOC(=O)Cc1c(C)nc2c(-c3ccc(Cl)cc3)c(C)[nH]n2c1=O	inconclusive: 18.4 µM [cytotoxic, single point]	–
Cc1cc(Br)ccc1NC(=O)CN(C)C(=O)C1CSC2(C)CCC(=O)N12 (stereo unspecified)	inconclusive: 10.3 µM [cytotoxic, partial curve]	–
COc1ccc(N(Cc2ccccc2)S(=O)(=O)c2cccc(C(=O)NC3=NCCS3)c2)cc1	inconclusive: 29.1 µM [cytotoxic, single point]	–
Cc1nc(NCCc2cnc[nH]2)c2oc3ccccc3c2n1	inconclusive: 16.4 µM [cytotoxic, partial curve, poor fit]	–
CCN(CC)C(=O)c1ccc2c(c1)N(Cc1c(F)cccc1Cl)C(=O)c1ccccc1S2	–	inactive: -26.5%
CN1C(=O)c2ccccc2NC(=O)[C@]12O[C@@H]2c1cccc(O)c1	inconclusive: 3.66 µM [rising, full curve, poor fit]	–
O=S(=O)(c1cccc(C(F)(F)F)c1)N(CCCN1CCOCC1)Cc1cccs1	inconclusive: 29.1 µM [rising, single point]	–
CCC(Oc1ccccc1)C(=O)N(CC)CC(=O)NCc1ccc(F)cc1 (stereo unspecified)	inconclusive: 20.6 µM [cytotoxic, single point]	–
C=CCN(C(=O)CCC(=O)Nc1cc(C)on1)C(C(=O)NC1CCCC1)c1ccc(CC)cc1 (stereo unspecified)	inconclusive: 5.17 µM [cytotoxic, full curve]	–
COc1ccc(S(=O)(=O)N2CCCC2C(=O)NCc2ccccc2Cl)cc1 (stereo unspecified)	inconclusive: 16.4 µM [cytotoxic, partial curve]	–
Cn1c(=O)c2c(nc(NCCc3ccccc3)n2Cc2ccccc2)n(C)c1=O	active: 6.51 µM	–
COc1ccc(OC)c(/C=C/C(=O)Nc2ccc3c(c2)CCC3)c1	active: 16.4 µM	–
CCC(C)NC(=O)c1ccccc1NC(=O)CN1C(=O)c2ccccc2S1(=O)=O (stereo unspecified)	–	inconclusive: 7.41%
Cc1nn(Cc2ccccc2)c(Cl)c1C(=O)NCc1ccc(C)n1C	active: 14.6 µM	–
COc1ccc(NC(=O)C(Cc2c[nH]c3ccccc23)NC(=O)OC(C)(C)C)cc1 (stereo unspecified)	inconclusive: 1.84 µM [rising, full curve]	–
